Results as given in PubChem BioAssay AID485314 (National Center for Advancing Translational Sciences (NCATS), 2010).
The whole screen tested about 340,000 compounds, of which about 4,500 (1.3%) were called active. Inconclusive results, whose numbers are uncertain, are shown with a selection of clear calls. The call rests on the fitted dose curve; in most records, active means well fitted inhibition curve with a large enough effect; inconclusive means small, poorly fitted or top-dose-only effect, or another doubt; inactive means no such curve, though single readings can be large or run the other way. Where the call is inconclusive, the potency comes from a doubtful curve fit.

molecular target: DNA polymerase beta (Homo sapiens) (UniProt P06746); experiment: qHTS Assay for Inhibitors of DNA Polymerase Beta; details: Pol beta primer extension/strand displacement, fluorescence kinetic; activity change, negative = inhibition: at 114 µM (top of the series)
Procedure, shortened: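 Enzyme-only controls used 10 nM Pol beta; buffer lacking enzyme served as negative control. Compound preincubated 15 min, then 50 nM substrate added; 0 and 10 min reads at room temperature.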
On the % scale 0 is the no-effect control and ±100 the full control effect; potency means the concentration at half of the fitted maximal effect.

| SMILES | Potency | activity change, negative = inhibition |
| --- | --- | --- |
| COc1ccc2cc3cc(C(=O)NCc4ccco4)oc3nc2c1 | active: 22.4 µM |  |
| COC(=O)Nc1ccc(S(=O)(=O)N2c3ccccc3CCC2C)cc1 (stereo not drawn) | inconclusive: 89.1 µM [inhibitor, single point] |  |
| Cc1cc(SCC(=O)Nc2ccc(F)cc2F)nc(=O)[nH]1 | active: 15.8 µM |  |
| COc1ccc2ncc3c(-c4ccc(C)c(C)c4)nn(CC(=O)Nc4ccccc4)c3c2c1 | inconclusive: 20 µM [inhibitor, full curve] |  |
| COc1ccccc1NC(=O)c1cc2cc3ccc(OC)c(Cl)c3nc2s1 | active: 2.82 µM |  |
| Cc1ccc(CNC(=O)CCS(=O)(=O)c2ccc(Br)cc2)cc1 | active: 7.94 µM |  |
| c1ccc(Nc2c3c(nc4ncnn24)CCC3)cc1 | inconclusive: 89.1 µM [inhibitor, single point] |  |
| CCCN(CCC)C(=O)C1CCN(c2cc(C)nc3c(-c4ccc(Cl)cc4)c(C)nn23)CC1 | inconclusive: 0.794 µM [inhibitor, full curve, poor fit] |  |
| COc1ccc(C(=O)Nc2ccc(-c3nc4ccccc4s3)c(Cl)c2)cc1Cl |  | inactive: -2.28% |
| CCC(C)C(NC(=O)/C(=C\c1ccccc1)NC(=O)c1ccc(OC)cc1)C(=O)O (stereo not drawn) |  | inactive: 11.6% |
| CC(=O)Nc1ccc(S(=O)(=O)NCc2ccc(C(=O)NCCN3CCCCCC3)cc2)cc1 | inconclusive: 50.1 µM [inhibitor, single point] |  |
| Cc1cccc(C)c1NC(=O)N1CCCCCCC1 | inconclusive: 89.1 µM [inhibitor, single point] |  |
| COc1ccc(/C(C)=N/NC(=O)CNC(=O)/C=C\c2ccco2)cc1 | active: 25.1 µM |  |
| Cc1ccc(C)c(Cn2c(SCC(=O)NCc3ccccc3)nc3ccccc32)c1 | inconclusive: 89.1 µM [inhibitor, single point] |  |
| Cc1ccccc1C(OCCN(C(C)C)C(C)C)c1ccccc1 (stereo not drawn) | inconclusive: 25.1 µM [inhibitor, single point] |  |
| O=C1/C(=C\c2ccc(O)c(O)c2)SC(=S)N1Cc1ccccc1 | inconclusive: 70.8 µM [inhibitor, single point] |  |
| COc1ccc(N2CCN(C(=O)c3ccc(COc4ccc5c(C)cc(=O)oc5c4)cc3)CC2)cc1 | inconclusive: 89.1 µM [inhibitor, single point] |  |
| Cc1nnc(NC(=O)c2sc3nc(-c4cccs4)cc(C(F)(F)F)c3c2N)s1 | active: 35.5 µM |  |
| OCc1cnc(SCc2ccccc2)n1Cc1ccccc1 | inconclusive: 2.51 µM [inhibitor, full curve, poor fit] |  |
| O=C(NCc1ccco1)c1ccc2nc3sc4c(c3c(=O)n2c1)CCCC4 | inconclusive: 20 µM [inhibitor, single point] |  |
| NC(=O)c1c(NC(=O)Cn2nc(C(=O)O)c3ccccc3c2=O)sc2c1CCC2 | inconclusive: 17.8 µM [inhibitor, full curve] |  |
| Cc1ccc(S(=O)(=O)N2CCCC2C(=O)Nc2cc(C)on2)cc1 (stereo not drawn) | inconclusive: 100 µM [inhibitor, single point] |  |
| CSc1nnc(N2C(=O)C(O)=C(C(=O)c3ccco3)C2c2ccccc2)s1 (stereo not drawn) | inconclusive: 0.158 µM [inhibitor, full curve, poor fit] |  |

| SMILES | Potency | activity change, negative = inhibition |
| --- | --- | --- |
| Cc1ccc(-n2nc(C)c3c2OC(N)=C(C#N)C3c2ccncc2)cc1 (stereo not drawn) | inconclusive: 89.1 µM [inhibitor, single point] |  |
| Cc1cccc(N(C)c2ccc3cc(S(=O)(=O)N4CCCC4)ccc3n2)c1 | inconclusive: 89.1 µM [inhibitor, single point] |  |
| CSC1=NC(C)(C)C=C(/C=C/c2ccc(Cl)cc2Cl)N1 | inconclusive: 89.1 µM [inhibitor, single point] |  |
| CCOC(=O)c1c(N)c2cc([N+](=O)[O-])cnc2n1C | inconclusive: 11.2 µM [inhibitor, partial curve] |  |
| Clc1ccccc1/C=C/C=N/Nc1nc(N2CCOCC2)nc(N2CCOCC2)n1 | inconclusive: 17.8 µM [inhibitor, partial curve, poor fit] |  |
| Cc1ccc(-c2nnc3c4ccccc4c(C)nn23)cc1NC(=O)c1ccccc1Cl | inconclusive: 6.31 µM [inhibitor, full curve] |  |
| O=C(COC(=O)C1CC(=O)N(Cc2ccco2)C1)c1ccc(OC(=O)c2ccco2)cc1 (stereo not drawn) | active: 7.08 µM |  |
| Cc1ccc(C2C(C#N)=C(N)SC(N)=C2C#N)cc1 |  | inactive: 0.0899% |
| CC(C)c1ccc(/C=N/NC(=O)c2cc(-c3cccc([N+](=O)[O-])c3)n[nH]2)cc1 | active: 22.4 µM |  |
| COC(=O)CSc1nnc(C2COc3ccccc3O2)n1-c1ccccc1 (stereo not drawn) | inconclusive: 89.1 µM [inhibitor, single point] |  |
| CCc1nnc(NC(=O)CSc2nnc(C3CC3)n2C)s1 |  | inactive: -2.13% |
| COc1cccc(-c2nc(SCC(=O)NC3CCCC3)c(-c3ccccc3)[nH]2)c1 |  | inactive: -25.9% |
| COc1ccc2c3c([nH]c2c1)C(C)N(C(C)=O)CC3 (stereo not drawn) |  | inconclusive: -42.2% [inhibitor] |
| Cn1c(/C=C/c2ccc([N+](=O)[O-])o2)nc2ccccc2c1=O | inconclusive: 100 µM [inhibitor, partial curve] |  |
| CC1CCC(C(C)C)C(OC(=O)C[n+]2cccc(C(N)=O)c2)C1 (stereo not drawn) |  | inactive: 16.9% |
| COc1cccc(OC)c1C(=O)NCCSC1CCCCC1 | inconclusive: 89.1 µM [inhibitor, single point] |  |
| COc1ccc(NC(=O)CC2C(=O)N(c3ccc(F)cc3)C(=S)N2NC(=O)c2ccc(Cl)cc2)cc1 (stereo not drawn) | inconclusive: 50.1 µM [inhibitor, single point] |  |
| CN1CCN(Cn2cc(/C=C/C(=O)c3ccccc3)c3ccccc32)CC1 | inconclusive: 89.1 µM [inhibitor, single point] |  |
| CC(=O)c1c(C)[nH]c(C(=O)OCC(=O)Nc2sc3c(c2C#N)CCCC3)c1C | inconclusive: 25.1 µM [inhibitor, full curve, poor fit] |  |
| O=C(CSc1nc(-c2cccs2)nc2cc(=O)[nH]n12)Nc1ccccc1F | inconclusive: 25.1 µM [inhibitor, full curve] |  |
| COc1ccc(C)cc1NC(=O)Cn1c(=O)ccc2cc(S(=O)(=O)N3CCC(C)CC3)ccc21 |  | inactive: 0.301% |
| CCOc1ccc(-c2nnn(CC(=O)NCc3ccc(OC)cc3)n2)cc1OCC | inconclusive: 39.8 µM [inhibitor, single point] |  |
| CN(C(=O)c1cc2n(n1)C(C(F)(F)F)CC(c1ccco1)N2)c1ccccc1 (stereo not drawn) |  | inactive: 26.6% |

| SMILES | Potency | activity change, negative = inhibition |
| --- | --- | --- |
| NS(=O)(=O)c1ccc(CNC(=O)C(c2ccccc2)c2ccccc2)cc1 | inconclusive: 100 µM [inhibitor, single point] |  |
| CCCCC[C@H](O)/C=C/C1=C(CCCCCCC(=O)O)C(=O)CC1 | inconclusive: 22.4 µM [inhibitor, full curve] |  |
| COc1cccc(-n2c(C)c3c(OC)cccc(=O)c3c2C)c1 | inconclusive: 20 µM [inhibitor, full curve] |  |
| O=C(Nc1ccc(Nc2ccccc2)cc1)Nc1ccccc1Cl | inconclusive: 3.98 µM [inhibitor, single point] |  |
| COc1ccccc1OCc1cc(-c2ccccc2)no1 | inconclusive: 39.8 µM [inhibitor, single point] |  |
| C=CCn1c2ccccc2c(=O)c2cc(C#Cc3ccsc3)ccc21 | active: 5.01 µM |  |
| CC(=O)c1ccc(NC(=O)Cn2cc(S(=O)(=O)Cc3ccccc3Cl)c3ccccc32)cc1 | inconclusive: 89.1 µM [inhibitor, single point] |  |
| CCC(CC)c1nnc(NC(=O)C2CC(=O)N(c3ccc4c(c3)OCCO4)C2)s1 (stereo not drawn) | inconclusive: 22.4 µM [inhibitor, single point] |  |
| CC(C)C1OC2c3cccc4cccc(c34)C2N1c1ccccc1 (stereo not drawn) | inconclusive: 63.1 µM [inhibitor, single point] |  |
| Cc1ccc(NC(=O)CCC(=O)N2CCSc3ccccc32)cc1Cl |  | inactive: -1.12% |
| CCOc1ccc(Nc2nc3cc(S(=O)(=O)N(CC)CC)ccc3o2)cc1 | inconclusive: 89.1 µM [inhibitor, single point] |  |
| O=C(Nc1ccc(F)cc1F)c1ccc2c(O)c(S(=O)(=O)c3ccc(Cl)cc3)c(=O)[nH]c2c1 |  | inactive: 19.6% |
| COc1cc(NC(=O)CSc2nc3nc(C)c(Cc4ccc(C)cc4)c(C)n3n2)cc(OC)c1OC |  | inactive: -28.1% |
| COc1ccc(CCNC(=O)CSc2ccc(-c3ccco3)nn2)cc1 | inconclusive: 63.1 µM [inhibitor, single point] |  |
| Cc1ccccc1OCC(=O)N(Cc1ccc(N(C)C)cc1)C1CCS(=O)(=O)C1 (stereo not drawn) | inconclusive: 89.1 µM [inhibitor, single point] |  |
| O=C(O)c1ccc(Cl)c(S(=O)(=O)Nc2ccc3[nH]c(=O)[nH]c3c2)c1 | active: 3.55 µM |  |
| Cc1ccc2cc(N)ccc2n1 | inconclusive: 31.6 µM [inhibitor, partial curve] |  |
| O=c1[nH][nH]c(-c2ccccc2)c1C=Nc1cccc(Cl)c1 | inconclusive: 0.141 µM [inhibitor, full curve, poor fit] |  |
| Cc1ccccc1Cc1c(C)nc2nc(SCC(=O)NCCc3ccc(Cl)cc3)nn2c1C |  | inactive: 8.64% |
| O=C(COc1cccc2cccnc12)N/N=C/c1ccc(O)cc1 | inconclusive: 0.282 µM [inhibitor, full curve, poor fit] |  |
| O=C(Nc1c(C(=O)O)oc2ccccc12)c1ccc(C(F)(F)F)cc1 | inconclusive: 6.31 µM [inhibitor, full curve, poor fit] |  |
| O=C(Nc1ccc(Cl)c(Cl)c1)c1ccncc1 | inconclusive: 0.501 µM [inhibitor, full curve, poor fit] |  |

Arranged by length of the SMILES (ascending): 4 of the compounds above

| SMILES | Potency | activity change, negative = inhibition |
| --- | --- | --- |
| COc1ccccc1OCc1cc(-c2ccccc2)no1 | inconclusive: 39.8 µM [inhibitor, single point] |  |
| CC(C)C1OC2c3cccc4cccc(c34)C2N1c1ccccc1 (stereo not drawn) | inconclusive: 63.1 µM [inhibitor, single point] |  |
| Cc1ccccc1OCC(=O)N(Cc1ccc(N(C)C)cc1)C1CCS(=O)(=O)C1 (stereo not drawn) | inconclusive: 89.1 µM [inhibitor, single point] |  |
| CCC(CC)c1nnc(NC(=O)C2CC(=O)N(c3ccc4c(c3)OCCO4)C2)s1 (stereo not drawn) | inconclusive: 22.4 µM [inhibitor, single point] |  |
